Source: PubChem BioAssay AID1259308 (NCATS, 2017)
Shown is a random part of about 59,000 reagents tested. About 1,510 of them (2.6%) were called active. 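Calls use total luciferase alone and ignore viability, so some active siRNAs may act by altering cell number.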 A number with no mark means an inactive call. Reagents against one gene are numbered here.

- Purpose: 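Knock-downs that increase output of a recombinant reporter protein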 (primary screen)
- System: human HEK293 embryonic kidney cells stably expressing firefly luciferase (HEK-CMV-Luc2-Hygro)
- Reagents: single siRNA against human genes, 0.8 pmol siRNA per well
- Timing: 72 h
- Measurement: 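Luciferase light (ONE-Glo) measured on one replicate plate set and viability (CellTiter-Glo) on the other, scaled to a negative control siRNA, with robust z-scores and luciferase per cell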
- Direction: total luciferase, z-score and total luciferase, % of control: higher = more reporter protein produced; luciferase per cell, z-score: higher = more reporter output per viable cell; viable cells, % of control: higher = more viable cells
- Active means: 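An siRNA counts as active if its total luciferase robust z-score exceeds 3; genes with two or more such siRNAs out of three were retested with fresh siRNAs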
- Meaning of the calls: active = raised luciferase; inactive = no rise

| Target gene | reagent | total luciferase, z-score | total luciferase, % of control | luciferase per cell, z-score | viable cells, % of control |
| --- | --- | --- | --- | --- | --- |
| TMPRSS7 | 1 | -0.0236 | 81.4 | -0.368 | 100 |
| TMPRSS7 | 2 | -0.137 | 79.2 | -0.346 | 96.9 |
| TMPRSS7 | 3 | -0.592 | 70.1 | -0.9 | 99.3 |
| INSIG2 | 1 | -0.42 | 73.5 | -1.08 | 109 |
| INSIG2 | 2 | -0.405 | 73.8 | -0.227 | 87.6 |
| INSIG2 | 3 | -0.124 | 79.4 | -0.488 | 101 |
| CCNI2 | 1 | -0.0675 | 80.5 | 0.34 | 82.3 |
| CCNI2 | 2 | 0.986 | 101 | 1.2 | 82.8 |
| CCNI2 | 3 | 2.04 | 123 | 1.72 | 87.2 |
| NOD2 | 1 | -0.648 | 69 | -1.73 | 122 |
| NOD2 | 2 | 0.733 | 96.5 | 0.331 | 98.8 |
| NOD2 | 3 | -0.388 | 74.2 | -0.648 | 98.3 |
| NEBL | 1 | -0.692 | 68.1 | -0.153 | 79.3 |
| NEBL | 2 | -0.414 | 73.7 | -0.105 | 84.6 |
| NEBL | 3 | -0.0561 | 80.8 | 0.176 | 86.2 |
| NEBL | 4 | 0.187 | 85.6 | -0.263 | 103 |
| NEBL | 5 | -0.104 | 79.8 | -0.0415 | 90.2 |
| NEBL | 6 | -1.3 | 56 | -1.62 | 95.7 |
| MGME1 | 1 | 0.214 | 86.1 | 0.429 | 86 |
| MGME1 | 2 | 0.6 | 93.8 | 0.308 | 96.7 |
| MGME1 | 3 | -0.222 | 77.5 | -0.847 | 108 |
| ZNF75A | 1 | 0.406 | 90 | -0.412 | 112 |
| ZNF75A | 2 | -0.579 | 70.4 | -0.627 | 92.7 |
| ZNF75A | 3 | -0.606 | 69.8 | -0.66 | 92.9 |
| FGD3 | 1 | -0.218 | 77.6 | 0.48 | 76.4 |
| FGD3 | 2 | 0.965 | 101 | 0.357 | 103 |
| FGD3 | 3 | -0.223 | 77.4 | -0.644 | 103 |
| YWHAB | 1 | 0.521 | 92.3 | -0.337 | 113 |
| YWHAB | 2 | -0.485 | 72.2 | -0.277 | 86.8 |
| YWHAB | 3 | -0.379 | 74.3 | -0.322 | 90.4 |
| SEPTIN12 | 1 | -0.472 | 72.5 | -0.404 | 90.1 |
| SEPTIN12 | 2 | -2.05 | 41.1 | -2.2 | 82.1 |
| SEPTIN12 | 3 | -2.02 | 41.7 | -1.42 | 67.6 |
| ATMIN | 1 | 0.0409 | 82.7 | 0.378 | 83.7 |
| ATMIN | 2 | -0.509 | 71.8 | -0.576 | 93.3 |
| ATMIN | 3 | 0.96 | 101 | 0.386 | 102 |
| NSMCE3 | 1 | 1.62 | 114 | 2.28 | 70 |
| NSMCE3 | 2 | 0.93 | 100 | 0.788 | 91.2 |
| NSMCE3 | 3 | 0.588 | 93.6 | 0.859 | 83.4 |
| SORCS2 | 1 | 0.121 | 84.3 | -0.689 | 113 |
| SORCS2 | 2 | -0.583 | 70.3 | -0.423 | 87.8 |
| SORCS2 | 3 | -0.514 | 71.7 | 0.563 | 69 |
| CST3 | 1 | 0.228 | 86.4 | -0.123 | 99.8 |
| CST3 | 2 | 0.489 | 91.6 | 1.39 | 71 |
| CST3 | 3 | 0.22 | 86.3 | 0.689 | 80.4 |
| ZNHIT3 | 1 | -0.179 | 78.3 | 0.404 | 78.7 |
| ZNHIT3 | 2 | -1.3 | 56.1 | -0.789 | 77.1 |
| ZNHIT3 | 3 | -1.31 | 55.8 | -1.46 | 91.4 |
| DHX8 | 1 | -1.54 | 51.3 | -1.08 | 76.1 |
| DHX8 | 2 | 2.04 | 122 | 2.73 | 66.7 |
| DHX8 | 3 | 1.93 | 120 | 1.82 | 83.1 |
| ANKRD34B | 1 | 3.61 (active) | 154 | 2.91 | 79.8 |
| ANKRD34B | 2 | -0.695 | 68.1 | -0.597 | 89 |
| ANKRD34B | 3 | 0.0518 | 82.9 | -0.219 | 98.2 |
| MIP | 1 | 0.472 | 91.3 | 0.579 | 87.6 |
| MIP | 2 | -1.76 | 47 | -1.82 | 84.8 |
| MIP | 3 | -0.481 | 72.3 | -1.05 | 107 |
| ATP2B3 | 1 | 1.35 | 109 | 0.544 | 105 |
| ATP2B3 | 2 | -0.989 | 62.2 | -1.76 | 111 |
| ATP2B3 | 3 | -0.193 | 78 | -0.0673 | 88.8 |
| GUCA2A | 1 | -0.127 | 79.4 | -0.608 | 104 |
| GUCA2A | 2 | 0.493 | 91.7 | 0.0658 | 101 |
| GUCA2A | 3 | -0.246 | 77 | -0.647 | 102 |
| PICALM | 1 | 0.299 | 87.8 | 0.566 | 84.6 |
| PICALM | 2 | 1.82 | 118 | 1.3 | 93.8 |
| PICALM | 3 | 2.34 | 128 | 1.48 | 97.2 |
| VTI1A | 1 | 0.955 | 101 | 0.681 | 94.2 |
| VTI1A | 2 | 0.532 | 92.5 | 0.12 | 100 |
| VTI1A | 3 | -0.656 | 68.8 | -1.04 | 101 |
| POGLUT1 | 1 | -0.311 | 75.7 | -0.581 | 98.6 |
| POGLUT1 | 2 | -0.181 | 78.3 | -0.979 | 113 |
| POGLUT1 | 3 | -0.894 | 64.1 | -0.877 | 90.2 |
| OR5V1 | 1 | 0.536 | 92.5 | 0.642 | 87.3 |
| OR5V1 | 2 | -0.959 | 62.8 | -1.01 | 91.6 |
| OR5V1 | 3 | 0.62 | 94.2 | 0.438 | 93.8 |

Ordered by “total luciferase, z-score” (lowest first): some entries from above.
| Target gene | reagent | total luciferase, z-score | total luciferase, % of control | luciferase per cell, z-score | viable cells, % of control |
| --- | --- | --- | --- | --- | --- |
| TMPRSS7 | 3 | -0.592 | 70.1 | -0.9 | 99.3 |
| TMPRSS7 | 2 | -0.137 | 79.2 | -0.346 | 96.9 |
| TMPRSS7 | 1 | -0.0236 | 81.4 | -0.368 | 100 |
